PubChem BioAssay AID1224830, NIAID – 2016
Purpose: 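Host factors that control LPS-induced TNF expression in human macrophages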 (primary screen). Cells: human THP-1 monocytic leukaemia cells, TNF dual-luciferase reporter clone, PMA-differentiated to macrophage-like cells. Knock-down reagent: siRNA pool against human genes, 50 nM. Timing: LPS for 4 h, given about 3 days after siRNA transfection. Treatment: bacterial LPS (TLR4 ligand), 10 ng/ml. Detection: 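Ratio of firefly to renilla light, scaled to the plate median and expressed as a robust z-score per replicate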. Direction: TNF reporter robust z-score: higher = stronger TNF reporter response to LPS. Call rule: 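Each well counts as active if its z-score is over 2.8 or under -1.5; controls are left without a call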.
The whole screen tested about 18,000 reagents; shown is a random part of them. About 2,900 of them (16%) were called active. 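Calls are made per well; low scores hint the gene aids the LPS response, high scores that it dampens it.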 Repeated entries: four replicate wells of each siRNA pool.

With knock-down of TTC17 (tetratricopeptide repeat domain 17) [SID315457835] the results were TNF reporter robust z-score -0.79; inactive. Against TTC17 (tetratricopeptide repeat domain 17) [SID315457835], the entry reads TNF reporter robust z-score -1.45; inactive. Knock-down of TTC17 (tetratricopeptide repeat domain 17) [SID315457835] resulted in: TNF reporter robust z-score -1.75; active. Against TTC17 (tetratricopeptide repeat domain 17) [SID315457835], the entry reads TNF reporter robust z-score -0.91; inactive. AHSA2P (activator of HSP90 ATPase homolog 2, pseudogene) [SID315461878] showed TNF reporter robust z-score -0.86; inactive. AHSA2P (activator of HSP90 ATPase homolog 2, pseudogene) [SID315461878] scored TNF reporter robust z-score -0.35; inactive.

Depletion of AHSA2P (activator of HSP90 ATPase homolog 2, pseudogene) [SID315461878] gave: TNF reporter robust z-score -0.58; inactive. AHSA2P (activator of HSP90 ATPase homolog 2, pseudogene) [SID315461878] scored TNF reporter robust z-score 0; inactive. Silencing of SLC4A9 [SID315460061] resulted in: TNF reporter robust z-score -0.17; inactive. For SLC4A9 [SID315460061] the deposit lists TNF reporter robust z-score 1.49; inactive. With knock-down of SLC4A9 [SID315460061], the record shows TNF reporter robust z-score -0.78; inactive. Depletion of SLC4A9 [SID315460061] resulted in: TNF reporter robust z-score -0.58; inactive.

AATF (apoptosis antagonizing transcription factor) [SID315455817] gave TNF reporter robust z-score 1.06; inactive. AATF (apoptosis antagonizing transcription factor) [SID315455817] showed TNF reporter robust z-score 1.07; inactive. AATF (apoptosis antagonizing transcription factor) [SID315455817] gave TNF reporter robust z-score 0.14; inactive. Depletion of AATF (apoptosis antagonizing transcription factor) [SID315455817] came out at: TNF reporter robust z-score 1.77; inactive.

Entries listed above called active (1):
TTC17 (tetratricopeptide repeat domain 17) [SID315457835] | TNF reporter robust z-score = -1.75; Call = active

More results follow.
After knock-down of ZNF701 (zinc finger protein 701) [SID315457836], the record shows TNF reporter robust z-score -0.28; inactive. After knock-down of ZNF701 (zinc finger protein 701) [SID315457836], the screen gave TNF reporter robust z-score -0.67; inactive. After knock-down of ZNF701 (zinc finger protein 701) [SID315457836] the results were TNF reporter robust z-score -1.06; inactive. Against ZNF701 (zinc finger protein 701) [SID315457836], the entry reads TNF reporter robust z-score 0.24; inactive. Knock-down of ZNF618 (zinc finger protein 618) [SID315461285] resulted in: TNF reporter robust z-score -0.14; inactive. ZNF618 (zinc finger protein 618) [SID315461285] gave TNF reporter robust z-score 0; inactive.

After knock-down of ZNF618 (zinc finger protein 618) [SID315461285] the results were TNF reporter robust z-score -0.38; inactive. For ZNF618 (zinc finger protein 618) [SID315461285], the values are TNF reporter robust z-score 1.04; inactive. For BEST2 (bestrophin 2) [SID315457193], the entry reads TNF reporter robust z-score -0.43; inactive. Silencing of BEST2 (bestrophin 2) [SID315457193] gave: TNF reporter robust z-score -0.55; inactive. After knock-down of BEST2 (bestrophin 2) [SID315457193] the results were TNF reporter robust z-score 0.02; inactive. BEST2 (bestrophin 2) [SID315457193] showed TNF reporter robust z-score 0.24; inactive.

Depletion of ZNF253 (zinc finger protein 253) [SID315458047] gave: TNF reporter robust z-score -1.13; inactive. ZNF253 (zinc finger protein 253) [SID315458047] showed TNF reporter robust z-score -0.1; inactive. ZNF253 (zinc finger protein 253) [SID315458047] showed TNF reporter robust z-score -0.52; inactive. ZNF253 (zinc finger protein 253) [SID315458047] showed TNF reporter robust z-score -0.32; inactive. For UHRF1 (ubiquitin like with PHD and ring finger domains 1) [SID315456163], the values are TNF reporter robust z-score 0.88; inactive. For UHRF1 (ubiquitin like with PHD and ring finger domains 1) [SID315456163], the entry reads TNF reporter robust z-score 2.7; inactive.

Against UHRF1 (ubiquitin like with PHD and ring finger domains 1) [SID315456163], the entry reads TNF reporter robust z-score 0.63; inactive. Knock-down of ATRN (attractin) [SID315452574] resulted in: TNF reporter robust z-score -0.22; inactive. Silencing of ATRN (attractin) [SID315452574] came out at: TNF reporter robust z-score 1.13; inactive. After knock-down of ATRN (attractin) [SID315452574] the results were TNF reporter robust z-score -1.03; inactive. ATRN (attractin) [SID315452574] showed TNF reporter robust z-score -0.23; inactive. With knock-down of ATAD2 (ATPase family AAA domain containing 2) [SID315456110] the results were TNF reporter robust z-score -1.24; inactive.

With knock-down of ATAD2 (ATPase family AAA domain containing 2) [SID315456110] the results were TNF reporter robust z-score -1.15; inactive. Knock-down of ATAD2 (ATPase family AAA domain containing 2) [SID315456110] gave: TNF reporter robust z-score -0.98; inactive. ATAD2 (ATPase family AAA domain containing 2) [SID315456110] showed TNF reporter robust z-score -0.71; inactive. LRRC55 (leucine rich repeat containing 55) [SID315463177] scored TNF reporter robust z-score 0.19; inactive. With knock-down of LRRC55 (leucine rich repeat containing 55) [SID315463177] the results were TNF reporter robust z-score -0.3; inactive. LRRC55 (leucine rich repeat containing 55) [SID315463177] gave TNF reporter robust z-score -0.4; inactive.

Against LRRC55 (leucine rich repeat containing 55) [SID315463177] the deposit lists TNF reporter robust z-score -0.53; inactive.
